Among all 580,000 compounds or so, about 6,100 (1.1%) were called active. This list was built around the results that the source calls inconclusive (neither active nor inactive); the mix of calls is not that of the screen. The call rests on the fitted dose curve; in most records, active means well fitted inhibition curve with a large enough effect; inconclusive means small, poorly fitted or top-dose-only effect, or another doubt; inactive means no such curve, though single readings can be large or run the other way. A potency beside an inconclusive call is a rough fit, not a confirmed value.
Biological target: Polyunsaturated fatty acid lipoxygenase ALOX12 (Homo sapiens) (UniProt P18054)
Assay: Primary qHTS assay for inhibitors of human arachidonate 12S-lipoxygenase (ALOX12): Round 2
Conditions: purified 12hLO, xylenol orange hydroperoxide absorbance; activity change, negative = inhibition: at 108 µM (top of the series) unless noted
Procedure, shortened: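 Purified human 12hLO at 150 nM in 25 mM Hepes, 0.01% Triton X-100, pH 7.0, preincubated 15 min at room temperature with compound. Reaction started with 40 uM arachidonic acid, 30 min at room temperature. Hydroperoxide measured by Fe-xylenol orange, 573/405 nm absorbance ratio.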
On the % scale 0 is the no-effect control and ±100 the full control effect; potency means the concentration at half of the fitted maximal effect.

Sequences of proteins named here, by UniProt entry; tags and fusion partners are left off. A change or cut given only in a name is not applied to a line headed by its entry.
UniProt P18054: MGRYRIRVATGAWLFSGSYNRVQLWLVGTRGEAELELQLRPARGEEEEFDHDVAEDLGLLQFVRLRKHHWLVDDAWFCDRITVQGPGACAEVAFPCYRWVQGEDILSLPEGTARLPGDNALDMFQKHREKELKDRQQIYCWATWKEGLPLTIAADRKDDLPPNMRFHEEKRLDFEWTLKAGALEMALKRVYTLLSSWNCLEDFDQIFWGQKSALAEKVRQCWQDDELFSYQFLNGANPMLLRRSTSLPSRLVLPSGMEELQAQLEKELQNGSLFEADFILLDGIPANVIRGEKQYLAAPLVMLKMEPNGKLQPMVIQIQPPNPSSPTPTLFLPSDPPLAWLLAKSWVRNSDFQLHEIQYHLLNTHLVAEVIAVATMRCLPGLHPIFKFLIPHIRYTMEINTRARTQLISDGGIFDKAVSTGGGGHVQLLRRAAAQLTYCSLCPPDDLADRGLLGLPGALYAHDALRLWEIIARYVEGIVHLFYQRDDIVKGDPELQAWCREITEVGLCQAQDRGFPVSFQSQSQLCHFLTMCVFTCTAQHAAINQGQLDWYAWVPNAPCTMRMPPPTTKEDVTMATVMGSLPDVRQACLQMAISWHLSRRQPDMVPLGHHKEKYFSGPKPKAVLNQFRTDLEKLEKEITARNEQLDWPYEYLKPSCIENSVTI

| SMILES | Potency | activity change, negative = inhibition |
| --- | --- | --- |
| Cc1ccc(OCC(=O)Nc2ccc(S(=O)(=O)Nc3cc(C)nc(C)n3)cc2)cc1 | inactive |  |
| COc1ccc(OC)c(CN2CCc3ccccc3C2)c1 | inconclusive: 0.631 µM [inhibitor, partial curve, poor fit] |  |
| OC(CN1CCCCC1)Cn1c2ccccc2c2cc(Br)ccc21 (stereo not drawn) | inactive |  |
| CCCc1cc(CN2CCOCC2)c(O)c(CN2CCOCC2)c1O | active: 35.5 µM |  |
| O=C(Nc1ccc2nsnc2c1)c1cccs1 | inactive |  |
| O=C(O)c1ccc(-n2cccc2/C=C2/NC(=O)N(c3ccccc3)C2=O)cc1 | inconclusive: 39.8 µM [inhibitor, partial curve] |  |
| Cc1ccc(C(=O)N2CCC3(CC2)NC(=O)N(c2ccccc2Cl)N3)cc1 | inconclusive: 0.794 µM [inhibitor, full curve, poor fit] |  |
| O=C(NCCCNC(=O)c1cc2ccccc2[nH]1)c1ccc(-c2ccccc2)cc1 | inconclusive: 79.4 µM [inhibitor, partial curve, poor fit] |  |
| O=C(OCc1cc(=O)oc2cc(O)ccc12)c1ccc(N2CCOCC2)nc1 | inconclusive: 22.4 µM [inhibitor, partial curve, poor fit] |  |
| CCOc1ccc(C(=O)OCC(=O)NCCCc2ccccc2)cc1 | inactive |  |
| CCSc1ncc(Cl)c(C(=O)N(Cc2ccc(N(C)C)cc2)C2CCS(=O)(=O)C2)n1 (stereo not drawn) | inconclusive: 0.355 µM [inhibitor, full curve, poor fit] |  |
| CC1CCCC(NC(=S)NC(=O)c2ccccc2Br)C1C (stereo not drawn) | active: 22.4 µM |  |
| CCOC(=O)c1cnc(SCC(=O)Nc2ccc(C)c(C)c2)nc1N | inconclusive: 20 µM [inhibitor, partial curve, poor fit] |  |
| CSc1nnc(-c2sc3cc(C(F)(F)F)cnc3c2-c2cccnc2)n1C | inactive |  |
| CCOC(=O)N1CCc2c(sc(NCc3ccc(N(C)C)cc3)c2C(=O)Nc2ccc(OC)cc2)C1 | inconclusive: 4.47 µM [inhibitor, full curve, poor fit] |  |
| COc1cc(OC)nc(Oc2ccccc2C(=O)Oc2ccccc2Cl)n1 | inactive |  |
| COCC1CN(C(C)=O)CC12CCN(C(=O)c1ccc(C(F)(F)F)cc1)CC2 (stereo not drawn) | inactive |  |
| S=c1[nH]nc(-c2cc(-c3ccco3)[nH]n2)n1-c1cccc2ccccc12 | inconclusive: 2.24 µM [inhibitor, full curve, poor fit] |  |
| CCCCCCCCN1C(=O)[C@H](CC(=O)NCCCCc2ccccc2)C[C@@]2(C(=O)OC)CCCCC=C12 | inconclusive: 0.447 µM [inhibitor, full curve, poor fit] |  |
| COC(=O)c1ccc(Nc2c([N+](=O)[O-])ccc3nonc23)cc1 | inactive |  |
| O=C1NN(c2ccccc2)C(=O)/C1=C\c1cccc(OC(=O)c2cccs2)c1 | inconclusive: 4.47 µM [inhibitor, full curve, poor fit] |  |
| O=C(O)CCCC(=O)N1CCN(c2ccc(Cl)c(Cl)c2)CC1 | inconclusive: 5.01 µM [inhibitor, full curve, poor fit] |  |
| Cc1cc(-c2nnc(SCC(=O)Nc3ccccc3C(F)(F)F)n2N)n[nH]1 | inactive |  |

| SMILES | Potency | activity change, negative = inhibition |
| --- | --- | --- |
| Clc1ccc(-c2nc(CSc3nncc4ccccc34)no2)cc1 | inconclusive: 50.1 µM [inhibitor, single point] |  |
| O=C(Nc1cccc2c1CCCC2)c1ccccc1Cl | inconclusive: 3.98 µM [inhibitor, full curve, poor fit] |  |
| CCOc1ccc(NC(=O)Cn2c(N3CCN(c4ccccc4)CC3)nc(C)cc2=O)cc1 | inconclusive: 3.16 µM [inhibitor, full curve, poor fit] |  |
| N#Cc1c(NC(=O)CCC(=O)O)sc2c1CCCCC2 | inconclusive: 50.1 µM [inhibitor, partial curve, poor fit] |  |
| Cc1ccc(-n2c(C3CCN(C(=O)c4n[nH]c5c4CCCC5)CC3)n[nH]c2=O)cc1 | inconclusive: 22.4 µM [inhibitor, partial curve, poor fit] |  |
| CN1CCC(NC(=O)c2n[nH]c3c2CN(C(=O)c2ccccc2Br)CC3)CC1 | inconclusive: 17.8 µM [inhibitor, full curve] |  |
| Nc1c(C(=O)C2CC2)sc2nc3c(cc12)CCC3 | inactive |  |
| Fc1ccccc1-c1nnc(SCc2c(F)c(F)c(F)c(F)c2F)n1C1CC1 | inconclusive: 44.7 µM [inhibitor, partial curve, poor fit] |  |
| Cc1c(Cl)cccc1N1C(N)=C(C#N)C(c2cc(CN3CCOCC3)cs2)C2=C1CCCC2=O (stereo not drawn) | inconclusive: 44.7 µM [inhibitor, partial curve, poor fit] |  |
| Cc1ccc(CN2CC(Oc3ccccc3C(=O)N3CCOCC3)C2)cc1C | inconclusive: 89.1 µM [inhibitor, single point] |  |
| Nc1nc(SCC(=O)Nc2cccc(Oc3ccccc3)c2)n[nH]1 | inactive |  |
| COc1ccc(OCC(=O)Nc2ccc(C)cc2)cc1 | inactive |  |
| COc1ccc(C(c2nnnn2C2CCCC2)N2CCN(C(=O)c3ccco3)CC2)cc1OC (stereo not drawn) | inconclusive: 11.2 µM [inhibitor, full curve] |  |
| CCN(CC)C(=O)[C@H]1C[C@H](CC(=O)NCc2cccc(C(F)(F)F)c2)C(=O)N2CCc3c([nH]c4ccc(Cl)cc34)[C@]12C | inconclusive: 89.1 µM [inhibitor, single point] |  |
| N#CCCN(C(=S)NC(=O)c1cccs1)c1ccccc1F | inconclusive: 28.2 µM [inhibitor, partial curve] |  |
| CC(C)CC1C(=O)N(Cc2cn(CC3CCCCC3)nn2)CCS(=O)(=O)N1Cc1ccc(-c2cccc(CO)c2)cc1 (stereo not drawn) | inconclusive: 112 µM [inhibitor, single point] |  |
| CC1=C(C(=O)N2CCCCCC2)CC(CC(=O)NC(c2ccccc2)c2ccccc2)C(=O)N1CCC1=CCCCC1 (stereo not drawn) | inactive |  |
| COCCn1nnnc1SCC(=O)c1ccc(F)cc1 | inconclusive: 39.8 µM [inhibitor, single point] |  |
| CO/N=C(\C)c1ccc(OCc2ccccc2)cc1 | inconclusive: 0.251 µM [inhibitor, full curve, poor fit] |  |
| Cc1ccc2c(c1)N(CC(=O)c1c(C)n(C)c3ccccc13)C(=O)CO2 | inconclusive: 44.7 µM [inhibitor, partial curve, poor fit] |  |
| CCCn1c(-c2ccc(F)cc2)nc2c1c(=O)[nH]c(=O)n2Cc1ccccc1 | inconclusive: 126 µM [inhibitor, single point] |  |
| COc1ccc(-c2nnn(CC(=O)N3CCCC3c3ccc4c(c3)OCCO4)n2)cc1OC (stereo not drawn) | inactive |  |
| Oc1ccc(Cl)cc1Nc1nc(NCC2CCCO2)c2ccccc2n1 (stereo not drawn) | inconclusive: 79.4 µM [inhibitor, partial curve, poor fit] |  |

| SMILES | Potency | activity change, negative = inhibition |
| --- | --- | --- |
| COc1cccc(N2CCN(C(=O)CCC[C@H]3NC[C@@H]4C[C@H]3CN(Cc3ccccc3)C4)CC2)c1 | inconclusive: 4.47 µM [inhibitor, full curve] |  |
| COC(=O)Cn1c(Br)nc2c1c(=O)n(C)c(=O)n2C | inactive |  |
| COc1ccc(NC(=O)Cn2c(C)cc(=O)c3ccccc32)cc1 | inactive |  |
| CCCOC(=O)/C(=C\C=C\c1ccco1)NC(=O)c1ccccc1 | active: 35.5 µM |  |
| O=C(CCCc1nc2ccccc2s1)NC1CCCCC1 | inactive |  |
| O=C1S/C(=C/c2ccc(N3CCOCC3)o2)C(=O)N1Cc1c(F)cccc1Cl | active: 28.2 µM |  |
| O=C(/C=C/c1ccccc1Cl)Nc1ccccc1 | inactive |  |
| CC(NC1CCCc2c1[nH]c1ccc(-c3ccccc3)cc21)c1ccccc1 (stereo not drawn) | inconclusive: 10 µM [inhibitor, full curve, poor fit] |  |
| COCCSc1nnc(-c2ccc(Cl)cc2)n1-c1ccc(OC)cc1 | inconclusive: 70.8 µM [inhibitor, partial curve, poor fit] |  |
| O=C(Cn1cc(C(=O)c2ccco2)c2ccccc21)Nc1ccccc1Cl |  | inconclusive: -32.9% [inhibitor] |
| Cc1nn2c(c1-c1ccccc1[S+](C)(=O)[O-])N(Cc1ccc(C(=O)O)s1)CCC2 | active: 31.6 µM |  |
| O=C(C1CCN(S(=O)(=O)c2cccc3nonc23)CC1)N1CCN(c2ccccc2F)CC1 | inactive |  |
| Cc1csc(/C(C#N)=C\c2ccc(COc3ccc(Cl)cc3Cl)o2)n1 | inconclusive: 39.8 µM [inhibitor, partial curve, poor fit] |  |
| COc1cccc(C(=O)C2CCCN(Cc3cccc(-n4nc(C)cc4C)c3)C2)c1 (stereo not drawn) | inactive |  |
| CCOC(=O)c1sc2ccccc2c1S(=O)(=O)N1CCN(c2cccc(OC)c2)CC1 | inactive |  |
| Cc1nc(NN)c2c3c(sc2n1)COC(C)(C)C3 | inconclusive: 39.8 µM [inhibitor, partial curve, poor fit] |  |
| Cc1nn(-c2ccc(F)cc2)c(-n2cccc2)c1C(=O)NCCCN1CCN(c2cccc(Cl)c2)CC1 | inconclusive: 31.6 µM [inhibitor, partial curve, poor fit] |  |
| O=C(COc1ccccc1)NCCSc1ccccc1 | inactive |  |
| CCOC(=O)C1=C(C(C)=O)C(c2cccnc2)C(C#N)=C(N)O1 (stereo not drawn) | inconclusive: 2.24 µM [inhibitor, full curve, poor fit] |  |
| O=C/C=C/c1ccc([N+](=O)[O-])cc1 | inconclusive: 70.8 µM [inhibitor, partial curve, poor fit] |  |
| Cc1nnc(N2C(=O)C(O)=C(C(=O)c3ccco3)C2c2cccc3ccccc23)s1 (stereo not drawn) | inconclusive: 1 µM [inhibitor, full curve, poor fit] |  |
| CC(C)CCNC(=O)C(=O)NC1CCCCC1 | inconclusive: 35.5 µM [inhibitor, single point] |  |

Single values from the entries so far.
Value for COc1cccc(C(=O)C2CCCN(Cc3cccc(-n4nc(C)cc4C)c3)C2)c1 (stereo not drawn) under Potency: inactive
Value for CCCn1c(-c2ccc(F)cc2)nc2c1c(=O)[nH]c(=O)n2Cc1ccccc1 under Potency: inconclusive: 126 µM [inhibitor, single point]
Value for COc1cc(OC)nc(Oc2ccccc2C(=O)Oc2ccccc2Cl)n1 under Potency: inactive
